Measured values: the supplement of paper PMC10849652
The other results are listed elsewhere or left out.

The chains behind the UniProt entries cited, without tags or fusion partners. Where a name states a change or a piece, a line headed by the entry shows the natural chain unless it says otherwise.
UniProt Q9Y2Z2: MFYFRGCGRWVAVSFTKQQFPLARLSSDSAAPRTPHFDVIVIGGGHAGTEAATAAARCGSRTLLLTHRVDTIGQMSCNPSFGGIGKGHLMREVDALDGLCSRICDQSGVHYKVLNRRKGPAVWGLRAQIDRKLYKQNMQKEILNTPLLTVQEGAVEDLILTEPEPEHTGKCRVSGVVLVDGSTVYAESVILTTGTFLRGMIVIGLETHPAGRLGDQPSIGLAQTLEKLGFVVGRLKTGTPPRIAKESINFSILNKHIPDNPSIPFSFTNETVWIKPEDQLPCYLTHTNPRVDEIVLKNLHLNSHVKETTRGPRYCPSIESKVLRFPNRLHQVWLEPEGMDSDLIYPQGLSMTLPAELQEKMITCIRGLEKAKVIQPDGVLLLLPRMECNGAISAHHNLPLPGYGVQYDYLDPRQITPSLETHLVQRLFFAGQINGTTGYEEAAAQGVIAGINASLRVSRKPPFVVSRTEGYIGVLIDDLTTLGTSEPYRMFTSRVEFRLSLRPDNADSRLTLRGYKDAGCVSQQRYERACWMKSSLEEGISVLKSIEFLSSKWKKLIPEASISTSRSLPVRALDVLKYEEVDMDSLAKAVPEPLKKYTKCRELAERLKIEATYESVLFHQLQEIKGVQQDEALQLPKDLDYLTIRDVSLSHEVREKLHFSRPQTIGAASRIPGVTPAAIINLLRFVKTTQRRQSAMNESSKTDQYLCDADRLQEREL
UniProt O75570: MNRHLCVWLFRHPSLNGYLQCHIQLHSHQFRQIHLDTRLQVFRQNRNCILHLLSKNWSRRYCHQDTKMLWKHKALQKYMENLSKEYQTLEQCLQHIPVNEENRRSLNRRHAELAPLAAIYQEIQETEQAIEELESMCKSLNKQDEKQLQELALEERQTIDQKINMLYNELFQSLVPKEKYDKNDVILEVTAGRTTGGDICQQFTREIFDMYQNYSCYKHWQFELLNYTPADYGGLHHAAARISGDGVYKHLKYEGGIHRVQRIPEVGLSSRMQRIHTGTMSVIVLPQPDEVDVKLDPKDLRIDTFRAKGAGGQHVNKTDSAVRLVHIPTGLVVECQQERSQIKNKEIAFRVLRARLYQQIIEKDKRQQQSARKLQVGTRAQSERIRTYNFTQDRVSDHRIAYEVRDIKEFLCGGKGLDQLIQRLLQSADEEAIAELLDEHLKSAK
UniProt Q13614, whole entry, looked up: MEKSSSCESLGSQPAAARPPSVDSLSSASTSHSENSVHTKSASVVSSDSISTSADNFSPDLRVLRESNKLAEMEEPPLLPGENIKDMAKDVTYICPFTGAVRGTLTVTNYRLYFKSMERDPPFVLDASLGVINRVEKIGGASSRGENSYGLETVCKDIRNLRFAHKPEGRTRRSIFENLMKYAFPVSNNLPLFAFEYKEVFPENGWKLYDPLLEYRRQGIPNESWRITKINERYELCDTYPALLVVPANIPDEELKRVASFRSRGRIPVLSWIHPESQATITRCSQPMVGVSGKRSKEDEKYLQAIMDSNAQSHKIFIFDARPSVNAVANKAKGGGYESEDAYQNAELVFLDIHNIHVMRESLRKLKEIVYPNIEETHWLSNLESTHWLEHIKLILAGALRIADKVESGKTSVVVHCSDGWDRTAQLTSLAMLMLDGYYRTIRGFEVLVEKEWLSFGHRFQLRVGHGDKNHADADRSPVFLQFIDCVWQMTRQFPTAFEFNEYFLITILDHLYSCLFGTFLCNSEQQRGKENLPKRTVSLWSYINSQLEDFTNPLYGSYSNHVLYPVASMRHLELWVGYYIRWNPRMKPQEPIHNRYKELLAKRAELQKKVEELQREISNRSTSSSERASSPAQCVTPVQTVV
UniProt Q9NXD2: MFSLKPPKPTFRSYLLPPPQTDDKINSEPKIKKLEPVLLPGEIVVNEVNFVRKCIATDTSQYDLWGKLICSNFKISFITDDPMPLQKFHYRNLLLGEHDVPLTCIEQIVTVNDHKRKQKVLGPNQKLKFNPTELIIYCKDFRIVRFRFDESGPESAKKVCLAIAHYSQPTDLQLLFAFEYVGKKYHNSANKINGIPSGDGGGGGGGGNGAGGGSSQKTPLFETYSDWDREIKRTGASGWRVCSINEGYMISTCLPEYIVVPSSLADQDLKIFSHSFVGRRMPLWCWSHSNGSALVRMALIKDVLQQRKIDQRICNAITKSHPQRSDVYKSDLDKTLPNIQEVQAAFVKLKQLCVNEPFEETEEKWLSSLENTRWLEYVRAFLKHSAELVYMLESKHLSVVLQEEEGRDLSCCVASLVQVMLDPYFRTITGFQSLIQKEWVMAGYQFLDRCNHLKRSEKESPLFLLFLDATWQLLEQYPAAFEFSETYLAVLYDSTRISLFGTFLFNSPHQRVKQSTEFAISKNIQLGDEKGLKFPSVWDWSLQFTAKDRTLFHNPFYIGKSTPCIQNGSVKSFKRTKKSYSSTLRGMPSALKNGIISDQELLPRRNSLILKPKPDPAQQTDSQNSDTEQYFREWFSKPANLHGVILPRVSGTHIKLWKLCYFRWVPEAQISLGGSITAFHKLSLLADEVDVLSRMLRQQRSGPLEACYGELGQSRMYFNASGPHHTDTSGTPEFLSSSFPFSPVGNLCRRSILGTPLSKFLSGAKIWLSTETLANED
UniProt O43312: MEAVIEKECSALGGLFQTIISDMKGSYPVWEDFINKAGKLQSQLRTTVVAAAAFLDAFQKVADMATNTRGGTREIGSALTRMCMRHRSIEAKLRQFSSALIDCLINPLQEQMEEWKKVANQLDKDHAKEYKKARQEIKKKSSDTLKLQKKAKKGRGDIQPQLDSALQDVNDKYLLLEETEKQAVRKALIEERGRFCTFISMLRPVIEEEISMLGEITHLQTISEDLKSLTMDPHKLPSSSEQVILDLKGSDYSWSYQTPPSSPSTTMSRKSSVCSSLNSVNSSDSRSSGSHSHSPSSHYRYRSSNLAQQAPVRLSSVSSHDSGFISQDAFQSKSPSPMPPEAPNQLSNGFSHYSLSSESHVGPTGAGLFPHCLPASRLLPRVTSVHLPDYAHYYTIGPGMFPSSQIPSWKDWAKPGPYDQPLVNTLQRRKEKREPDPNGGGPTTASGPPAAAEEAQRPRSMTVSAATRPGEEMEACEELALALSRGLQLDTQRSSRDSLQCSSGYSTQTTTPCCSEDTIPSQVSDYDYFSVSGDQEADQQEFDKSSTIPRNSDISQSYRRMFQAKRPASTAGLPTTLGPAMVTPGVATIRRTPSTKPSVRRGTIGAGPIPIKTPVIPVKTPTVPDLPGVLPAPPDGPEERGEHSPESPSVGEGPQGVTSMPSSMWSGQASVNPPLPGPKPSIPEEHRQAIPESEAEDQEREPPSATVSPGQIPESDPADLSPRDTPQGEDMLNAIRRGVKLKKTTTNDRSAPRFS

Columns and labels:
Assay in all cases: log2 fold change, soluble protein after heating vs DMSO (PISA); higher = thermal stabilisation; K562 lysate, 10 uM; active = over 0.2 and 3.5 SD of the protein, either way, in both replicates (recomputed)
[1] = compound: NCC(=O)Nc1ccc(-n2nc(C(F)(F)F)cc2-c2ccc3c(ccc4ccccc43)c2)cc1
Procedure, shortened: (§1)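 Pellets of K562 cells were dounce-homogenised in PBS pH 7.4 with 1 mM MgCl2, and the crude extract was held at 1 mg/mL protein for a 30 min treatment with 10 μM compound. Aliquots were heated for 3 min over 48°C-58°C and pooled before NP-40 was added to 0.5% at 4°C. The supernatant from 21,000xg for 90 min was quantified by TMTpro 16plex LC-MS/MS with channel sums equalised. Values are reported from duplicates as log-two fold change in thermal stability relative to solvent controls.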

[2] = compound: O=C(CCCCCCC(=O)Nc1ccccc1)NO [vorinostat]
Procedure, shortened: as §1

[3] = compound: O=C(O)c1ccc2c(c1)nc(Nc1cccc(Cl)c1)c1ccncc12 [silmitasertib]
Procedure, shortened: as §1

[4] = compound: O=C1NC(=O)C(c2cnc3ccccn23)=C1c1cn2c3c(cc(F)cc13)CN(C(=O)N1CCCCC1)CC2
Procedure, shortened: as §1

[5] = compound: c1cn2cc(-c3ccc4cn[nH]c4c3)nc(Nc3ccc(N4CCOCC4)cc3)c2n1 [entospletinib]
Procedure, shortened: as §1

Measured: log2 fold change

MRPS18A isoform 2 (UniProt Q9NVS2)
inactive: [1] 0.008 | [2] 0.021 | [3] 0.048 | [4] 0.019 | [5] -0.052

MRPL28 (UniProt Q13084)
inactive: [1] 0.002 | [2] -0.037 | [3] 0.022 | [4] 0.044 | [5] 0.129

MRPS5 (UniProt P82675)
inactive: [1] 0.028 | [2] 0.041 | [3] 0.004 | [4] 0.034 | [5] 0.045

MTO1 isoform 4 (UniProt Q9Y2Z2)
inactive: [1] 0.009 | [2] -0.088 | [3] -0.04 | [4] -0.003 | [5] 0.046

MTRF1 isoform 2 (UniProt O75570)
inactive: [4] -0.3

MTMR2 (UniProt Q13614)
inactive: [1] -0.069 | [2] 0.09 | [3] -0.015 | [4] -0.026 | [5] -0.02

MTMR10 (UniProt Q9NXD2)
inactive: [2] -0.187 | [3] 0.03 | [4] 0.077

3 successive entries already listed:
MTRF1 isoform 2 (UniProt O75570)
inactive: [4] -0.3

MTMR2 (UniProt Q13614)
inactive: [1] -0.069 | [2] 0.09 | [3] -0.015 | [4] -0.026 | [5] -0.02

MTMR10 (UniProt Q9NXD2)
inactive: [2] -0.187 | [3] 0.03 | [4] 0.077

Next part.

MTSS1 isoform 5 (UniProt O43312)
inactive: [4] -0.099

MT-CO1 (UniProt P00395)
inactive: [1] -0.097 | [2] 0.076 | [3] -0.037 | [4] -0.01 | [5] 0.114

MRPL30 isoform 2 (UniProt Q8TCC3)
inactive: [2] 0.041 | [3] -0.023 | [4] -0.012 | [5] -0.046

MRPS21 (UniProt P82921)
inactive: [1] -0.012 | [4] -0.114 | [5] 0.02
